The text below walks through data of paper PMC10225365.

These are yes or no findings as the source states them, for the method shown. Some entries that bind do so weakly or less than the wild type.

For assay [1], the target named is T1, Ovalbumin (albumin from chicken egg white) dialyzed against PBS (control OVA) (chicken (Gallus gallus)).
T1 chain: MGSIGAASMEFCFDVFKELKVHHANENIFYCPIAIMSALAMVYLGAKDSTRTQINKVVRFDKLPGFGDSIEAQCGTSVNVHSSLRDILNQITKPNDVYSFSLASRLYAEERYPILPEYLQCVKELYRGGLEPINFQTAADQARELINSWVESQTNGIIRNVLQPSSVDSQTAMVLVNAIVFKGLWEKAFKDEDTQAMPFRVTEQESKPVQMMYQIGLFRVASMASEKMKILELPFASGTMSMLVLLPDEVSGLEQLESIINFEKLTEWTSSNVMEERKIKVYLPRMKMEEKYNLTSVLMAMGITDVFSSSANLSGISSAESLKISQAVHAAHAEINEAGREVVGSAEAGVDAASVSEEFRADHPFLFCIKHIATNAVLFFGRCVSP
As to the kind of experiment: SEC; FPLC, Superdex 200 10/300 GL, isocratic elution with 50 mM Tris pH 7.4, 100 mM NaCl, 8 °C, absorbance at 280 nm; dialyzed OVA samples; monomeric and dimeric fractions assigned by column volume; both purified. The settings on record: remark: other sources report otherwise.

Assay [2] addresses T2, Ovalbumin dialyzed against LAP (LAP-modified OVA) (chicken (Gallus gallus)).
T2 chain: T1 chain
The description is as above. Particulars: remark: other sources report otherwise.

B1: Ovalbumin (albumin from chicken egg white) dialyzed against PBS (control OVA) (protein)
chain: T1 chain
As to B1, the binding entry in assay [1] is recorded as “binds”.

B2: Ovalbumin dialyzed against LAP (LAP-modified OVA) (protein)
chain: T1 chain
modifications: here or on the partner: oxidation at M9, M36, M197, M274 (by UPLC-MS/MS after tryptic digestion); oxidation at M9, M36, M197, M274 (by UPLC-MS/MS after tryptic digestion)
On to B2, for which, in assay [2], the binding result was “binds”.
